# Earlier results, collected in patent US20250000885A1, “COMPOSITION COMPRISING TWO OR MORE OLIGOSACCHARIDES” (Children's Hospital Los Angeles, priority 2022, published 2025).
# At least one compound was matched to its structure with a doubt left.
# System: piglets
# Conditions: piglets fed the substance; cited from earlier work
smiles,measurement,value
"CC(=O)N[C@H]1[C@H]([C@H](O)[C@H](O)CO)OC(O)(C(=O)O)C[C@@H]1O (stereo partly shown) [SA, sialic acid]",learning and memory tasks compared to controls,performed better on learning and memory tasks
